Source: the supplement of paper PMC12024529
Counter-ions that a name gives are not always drawn. The list shows a part of the results. Part of the spread comes from offsets between plates or batches.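 Wild-type or misfolding-prone missense mutant B-domain-deleted factor VIII, fused to Gaussia luciferase, is stably expressed in HEK293 lines. Each score is (mean triplicate-well luminescence minus DMSO mean) divided by DMSO standard deviation. Hits score at least 2; lower scores could stem from decreased secretion or poorer cell viability.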

The compounds below were run on HEK293 p.N1941S BDD-FVIII-Gluc (assay: secreted FVIII-Gluc luciferase Z-score vs DMSO control; higher = more FVIII-Gluc secretion). Conditions: 5 µM; 24 h.

SMILES	secreted FVIII-Gluc luciferase Z-score
O=C(N[C@H](CO)[C@H](O)c1ccc([N+](=O)[O-])cc1)C(Cl)Cl [Chloramphenicol (Chloromycetin)]	inactive: 0.921
O=C(Nc1ccccc1)OCC(CN1CCCCC1)OC(=O)Nc1ccccc1 (stereo not drawn) [Diperodon HCl]	inactive: 0.928
CCCCC(=O)O[C@]1(C(=O)CO)[C@@H](C)C[C@H]2[C@@H]3CCC4=CC(=O)C=C[C@]4(C)[C@@]3(F)[C@@H](O)C[C@@]21C [Betamethasone valerate (Betnovate)]	active: 5.95
C[N+](C)(C)CCO.[Cl-] [Choline Chloride]	inactive: 1.38
Cc1nc2n(c(=O)c1CCN1CCC(c3noc4cc(F)ccc34)CC1)CCCC2 [Risperidone (Risperdal)]	inactive: 0.11
CCC[C@@H]1C[C@@H](C(=O)N[C@@H]([C@H]2O[C@H](SC)[C@H](O)[C@@H](O)[C@H]2O)[C@H](C)Cl)N(C)C1 [Clindamycin]	inactive: 0.259
NC[C@H](O)c1ccc(O)c(O)c1 [Noradrenaline bitartrate monohydrate (Levophed)]	inactive: -0.131
COC(=O)C1=C(C)NC(C)=C(C(=O)OC(C)C)C1c1cccc2nonc12 (stereo not drawn) [Isradipine (Dynacirc)]	inactive: 0.125

In a second layout: results already given.
O=C(Nc1ccccc1)OCC(CN1CCCCC1)OC(=O)Nc1ccccc1 (stereo not drawn) [Diperodon HCl]
  secreted FVIII-Gluc luciferase Z-score: inactive: 0.928
CCCCC(=O)O[C@]1(C(=O)CO)[C@@H](C)C[C@H]2[C@@H]3CCC4=CC(=O)C=C[C@]4(C)[C@@]3(F)[C@@H](O)C[C@@]21C [Betamethasone valerate (Betnovate)]
  secreted FVIII-Gluc luciferase Z-score: active: 5.95
